Test results reported in US20260191998A1, “INDOLE PHTHALOCYANINE COMPOUND, PREPARATION METHOD THEREFOR, AND USE THEREOF IN TUMOR DIAGNOSIS IMAGING” (JIANGSU YAHONG MEDITECH CO., LTD., priority 2022, published 2026).
For part of these data: At least one structure is not confirmed: it was looked up by name or label, or the drawing left a doubt. Some entries share one result that the patent states for a list of compounds.

Key:
[1] = UV-VIS absorption spectra (optical property test); type: physicochemical; conditions: 10 μM, DMSO solution; for Absorbance × 10^4: at maximum absorption peak
Procedure: The UV-VIS absorption spectra of the compounds (10 μM, DMSO solution) were detected using Shimadzu UV2600 spectrophotometer, and the maximum absorption peak and absorbance of each compound were obtained.

RT112 tumor = conditions: 2 mg/kg or 0.4 mg/kg intraperitoneal, 48 hours after injection

Row | Structure (SMILES) | Absorption peak [1] [nm] | Absorbance × 10^4 [1] | Ratio of fluorescence intensity at the tumor site to background fluorescence intensity (RT112 tumor)
1 | CC[N+]1=C(/C=C/C2=C(Cl)C(=C/C=C3/N(CCCCCC(=O)NCCCCNC(=O)CCCCCN4/C(=C/C=C5\CCCC(/C=C/C6=[N+](CC)c7ccccc7C6(C)C)=C5Cl)C(C)(C)c5ccccc54)c4ccccc4C3(C)C)/CCC2)C(C)(C)c2ccccc21 [Example 78] | 794.5 | 4.082 | 
2 | CC[N+]1=C(/C=C/C2=C(Cl)C(=C/C=C3/N(CCCCCC(=O)NCCCNC(=O)CCCCCN4/C(=C/C=C5\CCCC(/C=C/C6=[N+](CC)c7ccccc7C6(C)C)=C5Cl)C(C)(C)c5ccccc54)c4ccccc4C3(C)C)/CCC2)C(C)(C)c2ccccc21 [Example 79] | 787.5 | 5.223 | 
3 | CC[N+]1=C(/C=C/C2=C(Cl)C(=C/C=C3/N(CCCCC(=O)NCCCCCNC(=O)CCCCN4/C(=C/C=C5\CCCC(/C=C/C6=[N+](CC)c7ccccc7C6(C)C)=C5Cl)C(C)(C)c5ccccc54)c4ccccc4C3(C)C)/CCC2)C(C)(C)c2ccccc21 [Example 80] | 789 | 4.457 | 
4 | CC[N+]1=C(/C=C/C2=C(Cl)C(=C/C=C3/N(CCCCC(=O)NCCCCNC(=O)CCCCN4/C(=C/C=C5\CCCC(/C=C/C6=[N+](CC)c7ccccc7C6(C)C)=C5Cl)C(C)(C)c5ccccc54)c4ccccc4C3(C)C)/CCC2)C(C)(C)c2ccccc21 [Example 81] | 794 | 3.867 | 
5 | C[N+]1=C(/C=C/C2=C(Cl)C(=C/C=C3/N(CCCCCC(=O)O)c4ccccc4C3(C)C)/CC2)C(C)(C)c2ccccc21 [Example 10, 2-((E)-2-((E)-3-(2-((E)-1-(5-carboxypentyl)-3,3-dimethylindolin-2-ylidene)ethenyl)-2-chlorocyclopent-1-en-1-yl)ethenyl)-1,3,3-trimethyl-3H-indol-1-ium Chloride] |  |  | greater than 1.5 times
